Measured values as given in patent US6977262B2, “Dihydropyrazolopyridine compounds and pharmaceutical use thereof” (Mitsubishi Pharma Corporation, priority 2001, dated 2005).

melting point: 196 °C
Compound: CCOC(=O)C1=C(CC)Nc2n[nH]cc2C1c1cccc2nonc12 (stereo not shown) [Example 240, Ethyl 4-(2,1,3-benzoxadiazol-4-yl)-6-ethyl-4,7-dihydro-2H-pyrazolo[3,4-b]pyridine-5-carboxylate]
